Whole data set: some 33,000 sequences, median “E-score (-0.5 to 0.5)” near -0.016, cut for the highest 2% near 0.3. The list shows a part of the results.
The sequences below were run against T1, Yer184c (UniProt P39961) (assay: PBM E-score (8-mer binding enrichment) (E-score (-0.5 to 0.5)); higher = stronger / more preferred TF binding). Conditions: protein concentration: 100 nM; construct: GST-full length.
T1 sequence: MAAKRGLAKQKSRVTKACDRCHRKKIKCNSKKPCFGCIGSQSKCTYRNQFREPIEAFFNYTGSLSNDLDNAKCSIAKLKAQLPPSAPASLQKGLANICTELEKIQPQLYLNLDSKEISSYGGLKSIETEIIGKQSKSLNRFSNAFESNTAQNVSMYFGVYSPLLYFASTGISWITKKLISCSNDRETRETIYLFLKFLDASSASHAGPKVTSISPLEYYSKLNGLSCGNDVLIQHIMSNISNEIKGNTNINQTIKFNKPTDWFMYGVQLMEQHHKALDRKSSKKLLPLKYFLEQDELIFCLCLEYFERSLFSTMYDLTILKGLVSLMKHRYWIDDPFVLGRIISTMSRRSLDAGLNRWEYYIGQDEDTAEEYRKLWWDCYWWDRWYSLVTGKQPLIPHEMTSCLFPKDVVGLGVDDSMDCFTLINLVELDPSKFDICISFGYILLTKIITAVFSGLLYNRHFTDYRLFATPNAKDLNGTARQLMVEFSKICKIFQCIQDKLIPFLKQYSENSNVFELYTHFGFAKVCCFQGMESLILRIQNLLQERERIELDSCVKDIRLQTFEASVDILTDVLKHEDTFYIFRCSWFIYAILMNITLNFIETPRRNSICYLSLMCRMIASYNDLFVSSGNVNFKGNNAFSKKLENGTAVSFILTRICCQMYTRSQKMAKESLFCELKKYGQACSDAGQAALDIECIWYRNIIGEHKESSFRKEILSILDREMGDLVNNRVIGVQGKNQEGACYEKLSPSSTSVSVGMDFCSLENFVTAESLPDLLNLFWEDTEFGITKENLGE
Procedure: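 Universal 'all 10-mer' protein binding microarrays (Agilent AMADID 015681) probed with GST-tagged S. cerevisiae TFs (full-length or DBD) made by in vitro transcription/translation (PURExpress), about 100-200 nM. Bound TF was detected with fluorescent anti-GST. Each ungapped 8-mer (which stands for itself and its reverse complement) is scored by the PBM enrichment score (E-score), a modified Wilcoxon-Mann-Whitney statistic from -0.5 to +0.5, computed with the Universal PBM Analysis Suite. Scale: above 0.35 generally sequence-specific binding.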

Sequence | PBM E-score
CGCGACCG | 0.104
CAAGCCGG | 0.327
TCGACTCA | -0.0125
ACGCCTAT | -0.161
AAGCTTTC | 0.289
GTTGTTAA | 0.25
CTTAGCAC | 0.115
GCTATAAA | 0.0995
GAATGATC | 0.129
CGTTCGTA | 0.102
ACGTACCG | -0.0455
AGGTACCT | -0.273
TATGGAGA | -0.0738
CCTGAATC | -0.0172
GCTAAGAA | 0.0162
ACCATACA | -0.032
CGTAAGAG | 0.0388
AGCATCGG | 0.24
CGTTAGCA | 0.0219
GGTTTCCA | -0.134
GACGAAAA | 0.3
AGTTAGTA | 0.0559
ACTGCTAC | -0.127
AGCCGGCT | 0.36
CTTAGCCC | -0.0355

Sequence | PBM E-score
AGGATCTG | -0.228
CAGAGCCA | -0.17
ATCCTTAC | -0.0522
ATAGATGA | 0.0459
CGGGCAAA | 0.157
AGGCTTTA | -0.154
ACACGGAA | 0.295
CAATATGG | -0.132
AACCTACG | -0.0262
GTTTTGGA | 0.134
CTCGACAA | -0.0392
ACCCGTGG | -0.169
ATCGATAA | 0.0778
AATACCCG | 0.104
CTGGCAAA | 0.0862
ATCTTCGA | -0.0159
GTGCGATA | -0.126
ATGACTTG | -0.0838
ACTATGTA | -0.0696
GCGTGAAA | 0.243
ACTCCAAT | 0.0143
ATGACTGC | -0.101
GAGTGTGC | 0.0695
TCCTCCAA | -0.119
CTGAACTC | -0.197

Part of the list above, in CSV form:
Sequence,PBM E-score
CAGAGCCA,-0.17
ATAGATGA,0.0459
AGGCTTTA,-0.154
CAATATGG,-0.132
CTGGCAAA,0.0862

(cont.)

Sequence | PBM E-score
GCCCACGA | -0.184
AGTGCAAG | 0.0836
AGCGAGTC | -0.175
ATGGCCTC | -0.106
AACCGAGC | 0.323
GAGAATGC | -0.0179
CGGCCGAG | 0.372
CCCCAAGC | 0.0912
ACAACGCC | 0.107
TCAATAGA | -0.0946
CCTAGGGA | -0.0337
GAGCGCCC | -0.233
CACAATTC | 0.111
TACATAAA | 0.0792
CGCTGAAA | 0.0129
AGCTATAT | 0.11
TCAATTCA | 0.159
GCCTCCTA | -0.251
GGGCGAGA | -0.16
CCCTTCCC | -0.176
CCGCGAGG | 0.117
CTCTTCGA | 0.14
AGTCTCCC | -0.132
AGCGGACG | 0.0647
GGCAGGAA | -0.0191

Sequence | PBM E-score
GTACGGTA | 0.0915
ACCAAGAC | 0.0281
ATCCGAAA | 0.321
TAGCCTAA | -0.119
GTAGGGAC | -0.083
GAGGCGGC | 0.0434
ACTGGTGC | -0.0219
CATATGAG | 0.00741
CAGGAAGC | 0.146
GCGTGCAA | -0.181
AGTGCCAC | -0.15
AAAACCGG | 0.289
AAGCTGGG | -0.103
AGATGTCC | 0.142
GAGTAAAA | -0.0227
ACTAAATG | 0.0476
GCTGGACA | -0.245
AAAAAACC | 0.052
AGAGCCAA | -0.00696
TGGGACCA | -0.265
CTAAGACC | 0.0272
CTCCATAA | -0.0937
AAGTGCCG | 0.254
CCCTATAC | -0.136
CCCGGTGC | -0.053

Sequence | PBM E-score
ATTGGCGG | 0.0231
ATCGGACA | 0.303
ACCCCAAG | -0.206
CGGAAGCA | 0.332
CGGATTAG | 0.151
TCCGCAAA | 0.153
GCGGCTGA | -0.0974
AACGTCCA | -0.0818
AAGATCTA | -0.0978
GACCTTAC | 0.00308
CGTGAATA | -0.0251
AGTGGTCG | -0.0425
CCTATACG | -0.267
TAGTTCAA | 0.0603
GGAGTCCC | -0.166
AACTCACG | 0.15
TAGTGAGA | -0.00975
CGGCGGTA | 0.348
GGGAAGGA | -0.198
AAAAAATG | 0.266
GTTATAGA | 0.117
CCAACGGC | -0.00857
ATCTAACA | 0.0855
ATGGAGCG | -0.07
ACTCCCCT | -0.199

Sequence | PBM E-score
CGCCACAA | -0.0767
CAAAGTGC | -0.102
GATCCTAC | -0.0277
GGGGCCGA | -0.192
CTGTGGCA | -0.136
TAGATCCA | 0.0121
AAGGTACT | 0.142
ACTATCAC | -0.0155
CGTGATTC | -0.0226
ACGGGGGC | -0.31
TCGCCACA | -0.101
CATAGTAA | 0.209
CCTTTGAA | -0.0618
ATCTGGCG | -0.109
CCTGTTAG | 0.0158
ACTCGTAA | 0.134
GAGGCGGA | 0.0769
CCAACAGC | -0.0193
AAGTACCC | -0.0197
CATATATC | 0.111
ATCTCTGG | -0.202
CGCTGGTC | -0.148
AGGTGTAA | -0.1
TGGTGACA | -0.00147
CCAGACAG | -0.131

Sequence | PBM E-score
ATCGCGAT | 0.0567
GGGTGTGA | -0.3
CCTCCGCA | -0.247
CATCCATA | -0.0625
CACAGGAA | 0.0944
ACAATCGG | 0.307
GCATTGAC | -0.119
GCTAGCAC | -0.117
TACCCATA | -0.198
CACCGCAA | 0.103
GCTCCTCC | -0.205
ATGCTGGA | 0.0518
AGACAAAA | -0.0591
GCACTCGC | -0.079
AAGTGACA | 0.0983
GCAGCGGA | 0.125
GGTGTTAC | -0.0631
AACACGAC | 0.0573
AATCTCAA | 0.0809
ACTTAGCA | 0.051
CCACCTCA | -0.312
GAGCTTCC | 0.14

Single entries from the entries so far:
AAGTGACA | PBM E-score: 0.0983
CACCGCAA | PBM E-score: 0.103

Retrieved one by one from the list above:
Sequence | PBM E-score
CGTTCGTA | 0.102
CCAACGGC | -0.00857
TCAATAGA | -0.0946
CCGCGAGG | 0.117
